Laboratory results: PMC5165196
No constants are given. Whether binding was seen depends on the method and setting. Binding seen in cells or lysates may run through a third protein. Some results given as binding are weak or reduced against the parent protein; the word gives no strength.

Sequences of proteins named here, by UniProt entry; tags and fusion partners are left off. A change or cut given only in a name is not applied to a line headed by its entry. A line that says so, or that is headed by a name, gives the form on record, which may keep a tag or linker.
UniProt P05780: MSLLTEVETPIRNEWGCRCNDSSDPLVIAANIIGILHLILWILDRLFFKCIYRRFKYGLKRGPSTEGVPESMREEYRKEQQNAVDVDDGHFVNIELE
TRAPPC6A-Myc (O75865-2, form named): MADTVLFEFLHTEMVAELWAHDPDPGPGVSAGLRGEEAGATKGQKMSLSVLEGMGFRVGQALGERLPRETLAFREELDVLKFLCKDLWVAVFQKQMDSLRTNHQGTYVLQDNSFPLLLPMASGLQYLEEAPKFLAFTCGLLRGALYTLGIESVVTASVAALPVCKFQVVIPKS

Biological target: Flag-WSNM2 (influenza A virus A/WSN/33 (H1N1)) (UniProt P05780)
Experiment: co-IP

“TRAPPC6A-Myc (from UniProt O75865-2 1-173)” was tested, and the binding was “binds”.
